Assays:
[1] = system: wfs1ab^WT zebrafish larvae; assay: Visual motor response in zebrafish larvae (basal mobility of controls); assay type: in vivo; conditions: at 3 µM in fish water
Male Swiss mice = assay: Open field activity test (anxiolytic effect) and observation of animals; assay type: in vivo; conditions: IP 30 minutes before the test
Description: Drug administration: Route: intraperitoneal (IP), Method: by injection. The drug was administered under a volume calculated according to the individual body weight of each mouse (5 ml/kg), Frequency: once before the behavioral procedure, Treatment length: once, Timing: 30 minutes before behavioral procedure.
Health of animals was checked daily: general aspect of animals, activity, acute or delayed mortality. Weight was monitored the day of experiment.
The day of the test, animals were tested for general locomotor activity in the open field (OF) activity test for 10 min. The open field is made of opaque white plexiglass. The arena is composed of a large square box (50cm × 50cm × 50cm). Animal movements were followed by an overhead camera placed above the apparatus. Each mouse was placed in the center of the arena and allowed to move freely through the arena during its session. The locomotor activity was assessed by counting the total distance traveled measured in centimeters (cm) for the whole session time. The time spent in center area, and the number of defecations were also assessed.

| Structure (SMILES) | basal mobility / locomotion in wfs1ab^WT controls (in words) [1] | total locomotion in the open field (in words) (Male Swiss mice; 10 min session) | number of defecation (in words) (Male Swiss mice; compared to vehicle group) |
| --- | --- | --- | --- |
| COc1ccc(C(=O)OC2CC3CCC(C2)N3C)cc1OC (stereo not shown) [Convolamine, (8-methyl-8-azabicyclo[3.2.1]octan-3-yl) 3,4-dimethoxybenzoate] | without affecting | no particular effect | does not modify |
| CCCN(CCC)CCc1ccc(OC)c(OCCc2ccccc2)c1 [NE-100, reference compound] | failed to affect |  |  |

Source: patent publication EP4523686A1, “A SIGMA-1 RECEPTOR POSITIVE MODULATOR FOR ITS USE IN THE PREVENTION AND THE TREATMENT OF A PATHOLOGY” (priority 2023, dated 2025)
